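Each compound is printed as two spots on a slide made to bind it covalently, so it has no test concentration; the read-out is fluorescence of the bound, labelled oligonucleotide. For the PreQ1, TPP and SAM-II riboswitches the laboratory earlier reported (doi:10.1038/s41467-019-09493-3) 1 µM RNA, 2 h, and a rule that included a mean Z-score above 3 (spot signal-to-noise against the whole library), a score well above that on a control array, and duplicate spots agreeing (coefficient of variation under 100). The data file gives only the calls; its cut-offs may differ, and compounds hitting several targets are kept. The calls come from the array alone, and fixing a compound to the slide can hide its binding.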 A compound is marked active if it was called a hit and inactive if it was screened but was not. This is an unselected part of the compounds tested. A target missing from an entry has no call listed here. A dash means that no call is listed here.

Targets, with sequences 5′ to 3′:
PreQ1: PreQ1 riboswitch RNA pseudoknot, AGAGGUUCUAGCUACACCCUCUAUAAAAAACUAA. From B. subtilis. About 24,000 compounds screened, about 170 hits.
SAM-II: SAM-II riboswitch RNA pseudoknot, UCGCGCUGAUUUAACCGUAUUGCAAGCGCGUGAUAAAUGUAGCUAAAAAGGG. About 21,000 compounds screened, about 200 hits.
TPP: TPP riboswitch RNA three-way junction, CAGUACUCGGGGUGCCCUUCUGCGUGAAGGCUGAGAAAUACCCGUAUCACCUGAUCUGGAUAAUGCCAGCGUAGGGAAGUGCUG. About 24,000 compounds screened, about 160 hits.

| # | Compound | PreQ1 | SAM-II | TPP |
|---|---|---|---|---|
| 1 | `Cc1cc2nc(-c3ccc(N)cc3O)oc2cc1C` | inactive | active | inactive |
| 2 | `CN1C(=O)C2(CCN(c3nccc(N)n3)CC2)c2ccccc21` | inactive | inactive | inactive |
| 3 | `O=C1CCC2(CCN(Cc3nnc(-c4cccnc4)o3)CC2)CN1CCO` | inactive | inactive | inactive |
| 4 | `CCCNc1c(N2CCC(C(=O)OCC)CC2)c(=O)c1=O` | inactive | inactive | inactive |
| 5 | `Nc1cc(-c2ccc(-n3ccnc3)nn2)c2cc[nH]c2n1` | inactive | inactive | inactive |
| 6 | `Cc1ccc(CN(CCO)C(=O)Nc2cccc(CN3CCCCC3)c2)s1` | inactive | inactive | inactive |
| 7 | `CCC(C)C(N)c1nnc(SCc2ccc(C)cc2)o1.Cl` (stereo not shown) | inactive | inactive | inactive |
| 8 | `CC(=O)Nc1ccc(Cl)c(C(=O)N(C)CC2(CO)CCC2)c1` | inactive | inactive | inactive |
| 9 | `COC1CCCOC12CCN(c1nc(N)nc3[nH]cnc13)CC2` (stereo not shown) | inactive | inactive | inactive |
| 10 | `CC1=C(C(=O)OC(C)(C)C)C(c2ccco2)C(C#N)=C(N)O1` (stereo not shown) | inactive | inactive | inactive |
| 11 | `COc1c(C2C(C#N)=C(N)Oc3cc(N(C)C)ccc32)cc2c(c1OC)OCO2` (stereo not shown) | inactive | inactive | inactive |
| 12 | `O=c1[nH]nc(OCCCc2ccc(Cl)cc2)c(NCc2cccnc2)c1Br` | inactive | inactive | inactive |
| 13 | `Cc1cc(NCC2CCCO2)n2nc(-c3cccc(Cl)c3)c(C)c2n1` (stereo not shown) | inactive | - | inactive |
| 14 | `Cc1n[nH]c2nc(N)nn2c1=O` | inactive | inactive | inactive |
| 15 | `CCN(CC=Cc1ccccc1)C(=O)C1CCNC1` (stereo not shown) | inactive | inactive | inactive |
| 16 | `COCc1cc(C)nc2sc(C(=O)Nc3ccc(OC)c(Cl)c3)c(N)c12` | inactive | inactive | inactive |
| 17 | `CCCCCCOC(=O)NCC(O)c1ccccc1` (stereo not shown) | inactive | inactive | inactive |
| 18 | `CCOC(=O)c1cc(CNCCc2c[nH]c3ccc(C)cc23)on1` | inactive | inactive | inactive |
| 19 | `CCOc1ccc(CCNC(=O)CC2COCCN2)cc1` (stereo not shown) | inactive | inactive | inactive |
| 20 | `O=C(O)c1c(CNCc2cccnc2)c2ccccc2n1Cc1ccccc1F` | inactive | - | inactive |
| 21 | `C=CCNCc1cccn1-c1sc2c(c1C#N)CCCC2` | inactive | inactive | inactive |
| 22 | `O=C(O)CCC=CCC[C@@H]1[C@H](N2CCCCC2)[C@@H](O)C[C@@H]1OCc1ccc(-c2ccccc2)cc1` | inactive | inactive | inactive |
| 23 | `CC(CO)NCCN1CCN(c2ncccn2)CC1` (stereo not shown) | inactive | inactive | inactive |
| 24 | `Cl.Cl.OC(COc1ccc(C23CC4CC(CC(C4)C2)C3)cc1)CN1CCN(Cc2ccccc2)CC1` (stereo not shown) | inactive | inactive | inactive |
| 25 | `COc1ccccc1CC(C)N(C)C(=O)c1ccccc1NCC(=O)O` (stereo not shown) | inactive | inactive | inactive |
| 26 | `CN1CCN(c2c(F)cc3c(=O)c(C(=O)O)cn(CCF)c3c2F)CC1` | inactive | inactive | inactive |
| 27 | `CCOC(=O)N1CCN(c2c(NC3CCCCC3)c(=O)c2=O)CC1` | inactive | - | inactive |
| 28 | `COc1ccccc1Nc1nc2nonc2nc1N1CCC(C)CC1` | inactive | - | inactive |
| 29 | `COc1cc(C(=O)NCc2cccnc2N)ccc1OC1CCN(C(C)=O)CC1` | inactive | inactive | inactive |
| 30 | `CCc1nc(N2CCN(CCO)CC2)c2cc(C)sc2n1` | inactive | inactive | inactive |
| 31 | `Fc1ccc(NCc2nc3ccccc3n2CCOc2ccccc2)cc1` | inactive | inactive | inactive |
| 32 | `CC(C)CC(Nc1ncnc2sc3c(c12)CCC3)C(=O)O` (stereo not shown) | inactive | inactive | inactive |
| 33 | `Nc1ccc2nsnc2c1Cl` | inactive | inactive | inactive |
| 34 | `CCN(CC)C(=O)[C@@H]1C[C@@H](N)CN1C(=O)c1csc(-c2cccs2)n1` | inactive | inactive | inactive |
| 35 | `Cc1nc(NCc2ccccc2)c2cc[nH]c2n1` | inactive | inactive | inactive |
| 36 | `Cc1cc(C)cc(NC2OC(=O)c3ccccc32)c1` (stereo not shown) | inactive | inactive | inactive |
| 37 | `Nc1nc(-c2ccc(Cl)c(Cl)c2)nc2c1c(=O)oc1ccccc12` | inactive | inactive | inactive |
| 38 | `CCC(O)c1nc2ccccc2n1CCOc1ccccc1` (stereo not shown) | inactive | - | inactive |
| 39 | `CCc1nnc2c(NCc3ccc(F)cc3)nc3ccccc3n12` | inactive | inactive | inactive |
| 40 | `Cc1c(C(=O)c2cccc3ccccc23)c2cccc3c2n1[C@H](CN1CCOCC1)CO3` | inactive | inactive | inactive |
| 41 | `CCOC(=O)c1cc(CC)sc1NC1=NS(=O)(=O)c2ccccc21` | inactive | inactive | inactive |
| 42 | `COCc1cc(O)nc(Nc2nc(C)c3cc(OC)ccc3n2)n1` | inactive | inactive | inactive |
| 43 | `CSCC(=O)N1CC[C@@H]2[C@@H](CCC(=O)N2CCCO)C1` | inactive | inactive | inactive |
| 44 | `O=S1(=O)CCC(CNC2CCN(c3nc4ccccc4s3)CC2)C1` (stereo not shown) | inactive | inactive | inactive |
| 45 | `COC(=O)c1cccc(Nc2nc(-c3cccnc3)nc3ccccc23)c1` | inactive | inactive | inactive |
| 46 | `CN(C)C(=O)N1CCCn2nc(CNC(=O)[C@@H]3[C@@H]4CC[C@@H](C4)[C@@H]3N)cc2C1` | inactive | inactive | inactive |
| 47 | `O=S(=O)(NCC(Nc1ccc(Cl)cc1)c1ccccc1)c1ccccc1` (stereo not shown) | inactive | - | inactive |
| 48 | `Cc1ccc(CNc2ccc(N3CCOCC3)c(Cl)c2)s1` | inactive | inactive | inactive |
| 49 | `COc1cc(-c2c(-c3ccccc3)ncn2[C@H](CO)c2ccccc2)ccc1O` | inactive | inactive | inactive |
| 50 | `Cc1nc(C)n(CCCNC(C)CO)n1` (stereo not shown) | inactive | inactive | inactive |
| 51 | `O=C(O)C(Cc1c[nH]c2ccccc12)Nc1ncnc2c1oc1ccccc12` (stereo not shown) | inactive | inactive | inactive |
| 52 | `CCC(c1ccnn1C)n1ccnc1-c1cc2n(n1)CCCNC2` (stereo not shown) | inactive | inactive | inactive |
| 53 | `COC(=O)CCn1cc(-c2cc(-c3cccc(F)c3)nc(N)c2C#N)cn1` | inactive | inactive | inactive |
| 54 | `CN1C2CCC1[C@@H](COC(=O)c1ccccc1)[C@@H](O)C2` (stereo partly shown) | inactive | inactive | inactive |
| 55 | `O[C@@H]1CN(Cc2ccccc2Cn2cccn2)CC[C@H]1c1ccc(F)cc1` | inactive | inactive | inactive |
| 56 | `OCCn1nc(Cc2cccs2)nc1CCc1cc(Cl)no1` | inactive | inactive | inactive |
| 57 | `c1ccc2cc(CN3CCC4(CCCNC4)C3)ccc2c1` (stereo not shown) | inactive | inactive | inactive |
| 58 | `CCC(Nc1cccc(OC)c1)C(=O)NCCC(=O)Nc1ccc(C)cc1C` (stereo not shown) | inactive | inactive | inactive |
| 59 | `Oc1cc(O)c2sc(Nc3ccc(F)cc3)nc2n1` | inactive | inactive | inactive |
| 60 | `OC1CCCN(C2CCN(Cc3cccc(CN4CCOCC4)c3)CC2)C1` (stereo not shown) | inactive | inactive | inactive |
| 61 | `CCOC(=O)c1sc(N)c(C(=O)Nc2ccccc2OC)c1C` | inactive | inactive | inactive |
| 62 | `OC1CN(CCC(F)(F)F)CCN(Cc2ccccc2)C1` (stereo not shown) | inactive | inactive | inactive |
| 63 | `O=C1c2ccccc2-c2n[nH]c3cccc1c23` | inactive | inactive | inactive |
| 64 | `CCOc1ccccc1Nc1nc(SC)nc2c1CCC2` | inactive | - | inactive |
| 65 | `CN1C(=O)CN(CC2CCNC2)C(=O)c2ccccc21` (stereo not shown) | inactive | inactive | inactive |
| 66 | `Cc1ccc(Nc2nc3ccccc3c3nnc(C)n23)cc1C` | inactive | inactive | inactive |
| 67 | `O=C1c2ccccc2NC(c2cccc(F)c2)N1Cc1ccco1` (stereo not shown) | inactive | inactive | inactive |
| 68 | `Cc1cccc(NC(=O)c2nnn(Cc3cccc(Br)c3)c2N)c1` | inactive | inactive | inactive |
| 69 | `COc1ccc(CN2CCN(c3nccc(N)n3)CC2=O)cc1` | inactive | inactive | inactive |
| 70 | `CCCN1CCC(CC(=O)N2CCC(C(O)c3nccn3C)CC2)CC1` (stereo not shown) | inactive | inactive | inactive |
| 71 | `CCCCS(=O)(=O)c1sc2nc3c(cc2c1N)CCCC3` | inactive | inactive | inactive |
| 72 | `CCc1ccc2occ(CC(=O)N3CCC4(CC3)[C@H](O)C[C@@H]4OCCN)c2c1` | inactive | inactive | inactive |

The first 6 entries again:

* Cc1cc2nc(-c3ccc(N)cc3O)oc2cc1C : PreQ1: inactive; SAM-II: active; TPP: inactive
* CN1C(=O)C2(CCN(c3nccc(N)n3)CC2)c2ccccc21 : PreQ1: inactive; SAM-II: inactive; TPP: inactive
* O=C1CCC2(CCN(Cc3nnc(-c4cccnc4)o3)CC2)CN1CCO : PreQ1: inactive; SAM-II: inactive; TPP: inactive
* CCCNc1c(N2CCC(C(=O)OCC)CC2)c(=O)c1=O : PreQ1: inactive; SAM-II: inactive; TPP: inactive
* Nc1cc(-c2ccc(-n3ccnc3)nn2)c2cc[nH]c2n1 : PreQ1: inactive; SAM-II: inactive; TPP: inactive
* Cc1ccc(CN(CCO)C(=O)Nc2cccc(CN3CCCCC3)c2)s1 : PreQ1: inactive; SAM-II: inactive; TPP: inactive

Data from the ROBIN nucleic acid binder screens, doi:10.1002/anie.202211358.